Consider 2 substances from patent US20260055141A1 (The Trustees of the University of Pennsylvania, priority 2022, published 2026).

A short description of the data set: peptide synthesis. The settings on record: whole synthesis.

Take “HsQGTFTSDLSKYLEEEVREFIWLKNGGPSDVNTDRPGLLDLK-NH2”: the “final HPLC purity” value came to 100% purity.
With “TFTSDLSKYLEEEVREFIWLKNGGPSDVNTDRPGLLDLK-NH2” the figure was 98.3% purity.
